# In patent US20100216772A1, “Novel Phenantridine Analogues and Uses Thereof” (priority 2004, published 2010):
# Tested on: Peripheral blood mononuclear cells (PBMCs)
# Experiment: Influence of compounds on T cell proliferation ([3H]-Thymidin, anti-CD3-stimulated PBMCs)
# Format: cell-based
# Conditions: PBMC, three different human donors
# From the text: Peripheral blood mononuclear cells (PBMCs) were isolated from peripheral blood by Ficoll gradient centrifugation. […] Subsequently, the cells were washed three times with PBS and were resuspended in 96-well plates in a concentration of 2×10^5 cells/well. […] As positive and negative controls, PBMCs, stimulated with soluble anti-CD3-antibody, and non-stimulated PBMCs plus 0,1% DMSO were used. The addition of 0,1% DMSO had no effect on the proliferation rate. […] The cells were harvested using a Mikro 96 Harvester (Skatron Instruments, Lier, Norwegen). The cpm-values indicative for proliferation were determined using a Packard Matrix 9600 Counter (Canberra Packard, Schwadorf, Österreich). The experiments were made with three different human donors.
# In order to determine the EC50 of test compounds, the value of anti-CD3-stimulated cells plus 0,1% DMSO was set as 100%. All other values were divided by the 100% value in order to obtain a relative percentage of inhibition. The obtained percentage values were used to determine the EC50 values using Sigma Plot.
smiles,measurement,value
"O=C1CN(S(=O)(=O)c2ccc(Cl)cc2)c2ccccc2-c2ccccc21 [Example 80, 5-(4-Chloro-benzenesulfonyl)-5,6-dihydro-dibenzo[b,d]azepin-7-one]",EC50,< 25 µM
